In the supplement of paper PMC10338343:
± gives the standard deviation. This is a selection; strong and weak results do not stand in their true shares. Many of these values have a large error.

The sequences below were run on EfPiwi piRISC loaded with piRNA #1 (26 nt) (assay: pre-steady-state target cleavage rate (min^-1); guide: piRNA #1 5'p-UGAGGUAGUAGGUUGUAUAGUAUCCA; MIWI and MILI are mouse PIWI proteins and EfPiwi is from a freshwater sponge; tags in brackets are library labels; higher = faster piRNA-guided slicing of the target). Conditions: auxiliary factor: 500 nM Ephydatia muelleri Gtsf1.
Procedure, shortened: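 Cleave-'n-Seq reactions paired 0.1 nM transcribed, DNA-blocked target RNA library with 1 nM active affinity-purified piRISC holding one synthetic guide, plus or minus 500 nM GTSF1 partner protein, in HEPES–potassium acetate buffer at 33 °C for 0–8 or 0–960 min. After sequencing of uncleaved targets and normalisation to depth and weakly complementary targets, the pre-steady-state cleavage rate was taken from a burst-and-steady-state fit. Three trials were pooled, and k3 was capped at 0.0001 min^-1.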
For GGAGACCUAUGAUAUGUACCUACUAUCUCA, the “pre-steady-state target cleavage rate” value was 0.000466 ± 0.011. In the case of GGAGAGGAUACUAUACAACCUACUCACCUCA, the “pre-steady-state target cleavage rate” value is reported as 0.00339 ± 0.0021. GGAGACCUAACAAUACAUCCUACUACCUCA was tested, and the “pre-steady-state target cleavage rate” value was 0.00431 ± 0.0035. GGAGAGGAUACUUUACUACCUACUACCUCA was tested, and the “pre-steady-state target cleavage rate” value was 0.003 ± 0.0031. GGAGACCUUACUAUACAACCUACUACCUUCA was tested, and the “pre-steady-state target cleavage rate” value was 0.0532 ± 0.019. In the case of GGAGACCUAUGUAUACAACCUACAUCCUCA, the “pre-steady-state target cleavage rate” value is reported as 0.000246 ± 0.0098. For GGAGACCUUACUAUAGAACGUACUACCUCA, the “pre-steady-state target cleavage rate” value was 0.000667 ± 0.0052. For GGAGACCUUACUAUACAACCUACUACCUGA, the “pre-steady-state target cleavage rate” value was 0.00415 ± 0.0019. GGAGACCAUACAAUACAACCUACUUCCUCA was tested, and the “pre-steady-state target cleavage rate” value was 0.00307 ± 0.0036. GGAGACGAUACUAUAAACCUACUACCUCA was tested, and the “pre-steady-state target cleavage rate” value was 0.00399 ± 0.0041. GGAGACCUUACUAUACAACCUACUACUUCA was tested, and the “pre-steady-state target cleavage rate” value was 0.0046 ± 0.003. For GGAGACCUAUGUAUAGAAGCUACUACCUCA, the “pre-steady-state target cleavage rate” value was 0.000384 ± 0.0067. For GGAGACCUAUGAUAUGAACCUGCUACCUCA, the “pre-steady-state target cleavage rate” value was 0.000205 ± 0.02. In the case of GGAGACCAUACUAUACUACCUACUACCUGA, the “pre-steady-state target cleavage rate” value is reported as 0.00271 ± 0.0014. In the case of GGAGACGAUACUAUACAACCUACUUGCUCA, the “pre-steady-state target cleavage rate” value is reported as 0.00371 ± 0.0014. With GGAGAGGAUACCUAUACAACCUACUACCUCA the “pre-steady-state target cleavage rate” value was 0.0826 ± 0.033. With GGAGACGAUACUAUACAACCUACUACUUCA the “pre-steady-state target cleavage rate” value was 0.00983 ± 0.0039. GGAGACCUAUGAUAUGAAGCUACUACGUCA was tested, and the “pre-steady-state target cleavage rate” value was 0.000768 ± 0.011. With GGAGACCAUAGUAUAGAACCUACUACCUCA the “pre-steady-state target cleavage rate” value was 0.00127 ± 0.0043. For GGAGACCUAUCAAUACAACCUACUACGUCA, the “pre-steady-state target cleavage rate” value was 0.00128 ± 0.0054. For GGAGACCAUACUAUACAAGCUAGUACCUCA, the “pre-steady-state target cleavage rate” value was 0.0032 ± 0.0027. GGAGACCUAACUAUACAACCUGCUACCUCA was tested, and the “pre-steady-state target cleavage rate” value was 0.0127 ± 0.005. With GGAGACCUUACAAUACAACCUACUACCUCA the “pre-steady-state target cleavage rate” value was 0.0117 ± 0.0048. For GGAGACCUAACGUAUACAACCUACUACCUCA, the “pre-steady-state target cleavage rate” value was 0.0505 ± 0.021.
